# Among all 320,000 compounds or so, about 22,000 (6.9%) were called active. This list was built around the results that the source calls inconclusive (neither active nor inactive); the mix of calls is not that of the screen. Calls come from the whole dose curve; as a rule, active = well fitted inhibition curve with a large enough effect; inconclusive = small, poorly fitted or top-dose-only effect, or another doubt; inactive = no such curve, though single readings can be large or run the other way. Potencies of inconclusive entries are doubtful fits and often do not repeat.
# Test: Primary qHTS for delayed death inhibitors of the malarial parasite plastid, 96 hour incubation
# Details: P. falciparum luciferase reporter growth; series mostly up to 28.7 µM
# Procedure, shortened: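 Compounds incubated with erythrocytes infected by luciferase-expressing P. falciparum (2% hematocrit, 0.05% parasitemia final) for 96 hours, 37 C in 5% CO2. Growth inhibition scored as decreased luciferase luminescence.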
# Potency is the fitted concentration of half-maximal effect.
row,Structure (SMILES),Potency
1,O=C(Nc1cc(C(F)(F)F)ccc1N1CCCCC1)c1cccc([N+](=O)[O-])c1,"inconclusive: 1.17 µM [inhibitor, partial curve, poor fit]"
2,COc1ccc(C2CC(=O)Nc3cc(C)c(C)cc32)c(OC)c1OC (centres undefined),"inconclusive: 18.5 µM [inhibitor, single point]"
3,CC1CCN(C(=O)CSc2nc(=O)n3ccccc3n2)CC1,inactive
4,COc1ccc(NC(=O)CC2C(=O)N(Cc3ccccc3)C(=S)N2CCN2CCOCC2)cc1 (centres undefined),"inconclusive: 10.4 µM [inhibitor, single point]"
5,Cc1cc(C(=O)COc2ccc(-c3nnco3)cc2)c(C)n1Cc1ccccc1,"inconclusive: 6.57 µM [inhibitor, partial curve, poor fit]"
6,COc1ccc(N2C(=O)CC(Sc3nc4ccccc4s3)C2=O)cc1OC (centres undefined),inactive
7,Cc1c(N(C)S(=O)(=O)c2cccc(C(=O)NC(C)C)c2)c(=O)n(-c2ccccc2)n1C,active: 11.7 µM
8,Cc1ccc(CN2CCN(CC(C)C)C(CCO)C2)s1 (centres undefined),"inconclusive: 11.7 µM [inhibitor, single point]"
9,CCNS(=O)(=O)c1ccc(C)c(-n2cnnn2)c1C,"inconclusive: 16.5 µM [inhibitor, single point]"
10,COC(=O)C1CCCCN1C(=O)c1ccc2oc(C(C)C)nc2c1 (centres undefined),"inconclusive: 2.62 µM [inhibitor, single point]"
11,O=C(N/N=C/C(Cl)=C/c1ccc([N+](=O)[O-])cc1)C(=O)Nc1ccccc1C(=O)O,"inconclusive: 8.28 µM [inhibitor, single point]"
12,Cc1c(Cl)c([N+](=O)[O-])nn1Cc1ccc(C(=O)N/N=C\c2cc(Cl)ccc2O)o1,active: 3.7 µM
13,Cc1ccccc1NC(=S)N(C)Cc1cccs1,"inconclusive: 18.5 µM [inhibitor, single point]"
14,Cc1noc(C(=O)Nc2cccc(Cl)c2)c1Cl,active: 9.28 µM
15,O=C(Cn1ccc2ccccc2c1=O)NCC(=O)Nc1ccc(F)cc1F,inactive
16,COc1ccc(Cl)c2sc(N3CCN(C(=O)c4ccco4)CC3)nc12,"inconclusive: 8.28 µM [inhibitor, partial curve]"
17,CCC1C(=O)NCCN1C(=O)c1cc(COc2cc(C)ccc2C)on1 (centres undefined),"inconclusive: 9.28 µM [inhibitor, single point]"
18,COc1cccc(C(=O)NC(=O)Nc2nc(C)cc(C(F)(F)F)n2)c1,inactive
19,CC1CCC2C(=O)N(c3ccccc3OC(=O)c3ccccc3)C(=O)C2C1 (centres undefined),inactive
20,COc1cc2c(=O)n(Cc3ccccc3)c(=O)n(CC(=O)NCCc3ccccc3)c2cc1OC,"inconclusive: 6.57 µM [inhibitor, partial curve, poor fit]"
21,Cc1ccc(CCNC(=O)C2CCN(S(=O)(=O)c3ccc4nc5c(c(C(=O)O)c4c3)CCCC5)CC2)cc1,"inconclusive: 2.62 µM [inhibitor, full curve, poor fit]"
22,O=C(O)CC/C=C\CC[C@@H]1[C@@H](N2CCCCC2)[C@@H](O)C[C@@H]1OCc1ccc(-c2ccccc2)cc1,"inconclusive: 5.36 µM [inhibitor, partial curve]"

# A stretch from further up, for reference:
row,Structure (SMILES),Potency
21,Cc1ccc(CCNC(=O)C2CCN(S(=O)(=O)c3ccc4nc5c(c(C(=O)O)c4c3)CCCC5)CC2)cc1,"inconclusive: 2.62 µM [inhibitor, full curve, poor fit]"
22,O=C(O)CC/C=C\CC[C@@H]1[C@@H](N2CCCCC2)[C@@H](O)C[C@@H]1OCc1ccc(-c2ccccc2)cc1,"inconclusive: 5.36 µM [inhibitor, partial curve]"

# (listing goes on)

row,Structure (SMILES),Potency
1,COCCN(CCOC)c1nc(-c2ccccc2)nc2ccccc12,"inconclusive: 11.7 µM [inhibitor, single point]"
2,CCOC(=O)/C=C/CN(C(=O)OC(C)(C)C)S(=O)(=O)N1CC=CC1,"inconclusive: 11.7 µM [inhibitor, single point]"
3,CC(=O)Oc1ccc2c(c1)O/C(=C\c1ccncc1)C2=O,"inconclusive: 11.7 µM [inhibitor, partial curve]"
4,CC(C)CNC(=S)NC(=O)c1ccc(Cl)cc1Cl,inactive
5,C=CCOc1nc2c(c(=O)n(C)c(=O)n2C)n1Cc1ccccc1,inactive
6,Cn1c(CCNC(=O)c2ccco2)nc2cc(NC(=O)c3ccccc3)ccc21,"inconclusive: 18.5 µM [inhibitor, single point]"
7,O=C(c1c[nH]c(C(=O)N2CCN(Cc3ccccc3)CC2)c1)C1CCCCC1,inactive
8,COCCNC(=O)c1n[nH]c2ccccc12,inactive
9,CC1OC(OC2C(OC3C(O[C@H]4CC[C@]5(C)C6C=C[C@]78OC[C@@]9(CC[C@@H](C)[C@H](C)C97)[C@H](O)C[C@@]8(C)[C@]6(C)CC[C@H]5C4(C)C)OC(C)C(O)C3O)OC(CO)C(O)C2O)C(O)C(O)C1O (some centres undefined),"inconclusive: 18.5 µM [inhibitor, single point]"
10,Cc1cc(C)nc(NS(=O)(=O)c2ccc(NC(=O)c3ccc4c(c3)OCO4)cc2)n1,"inconclusive: 11.7 µM [inhibitor, partial curve, poor fit]"
11,O=C(O)c1ccc2oc(=O)c(S(=O)(=O)c3ccc(F)cc3)cc2c1,"inconclusive: 0.828 µM [inhibitor, full curve]"
12,Cc1cc(C(=O)COC(=O)c2ccco2)c(C)n1Cc1ccco1,inactive
13,Fc1ccccc1-c1nc(NCCCN2CCOCC2)c2ccccc2n1,"inconclusive: 13.1 µM [inhibitor, partial curve, poor fit]"
14,O=C(Nc1cc(Cl)ccc1-n1cncn1)c1ccc(Br)o1,inactive
15,N/C(=N\OC(=O)CCCc1ccccc1)c1cccc([N+](=O)[O-])c1,inactive
16,CCN(CC)c1ccc(/C=C(\C#N)C(N)=S)cc1,"inconclusive: 0.828 µM [inhibitor, full curve, poor fit]"
17,COc1ccc(/C=C2\Oc3cc(OCC(=O)N4CC(O)C[C@H]4C(=O)O)ccc3C2=O)c(OC)c1OC (some centres undefined),"inconclusive: 14.7 µM [inhibitor, partial curve, poor fit]"
18,Nc1nonc1-c1nc2ccccc2n1CC(=O)O,inactive
19,O=C(CC1SC(=O)N(Cc2ccc(Cl)cc2)C1=O)Nc1nccs1 (centres undefined),"inconclusive: 18.5 µM [inhibitor, single point]"
20,CC(C)N(Cc1ccccc1)C(=S)Nc1cccnc1,active: 7.38 µM
21,OCCc1ccc(O)c(-n2nc3ccccc3n2)c1,inactive
22,O=C(COc1ccccc1)Nc1ccccc1Cl,"inconclusive: 0.233 µM [inhibitor, full curve, poor fit]"

# Grouped by structure, the entries above containing an NH in an aromatic ring (two)
row,Structure (SMILES),Potency
7,O=C(c1c[nH]c(C(=O)N2CCN(Cc3ccccc3)CC2)c1)C1CCCCC1,inactive
8,COCCNC(=O)c1n[nH]c2ccccc12,inactive
